Laboratory results: US8058243B2, “Method for treating a brain cancer with ifenprodil” (HSC Research and Development Limited Partnership, priority 2006, dated 2011)
Counter-ions that a name gives are not always drawn. At least one compound was matched to its structure with a doubt left.

Test system: murine neural precursor cells (neurosphere cultures)
Test: HTS of LOPAC library against secondary neurosphere cultures, MTT proliferation assay at 3 μM, day 7 (z score, P value)
Assay type: cell-based, mouse
Conditions: yes/no: significantly inhibited neurosphere proliferation (P<0.01) in primary screen

SMILES | Activity
CCCCc1ccc(C(=O)O)nc1 [Fusaric acid] | no
CCCN(CCC)CCc1ccc(O)c(O)c1 [Dipropyldopamine hydrobromide] | no
Cc1nccc2c1[nH]c1ccccc12 [Harmane] | no
CC(C)NC(C)Cc1ccc(I)cc1 (stereo not shown) [Iofetamine hydrochloride] | no
